LdMetRS: 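Primary screen of methionyl-tRNA synthetase; the read-out is not stated. Target: Methionyl-tRNA synthetase (putative), Leishmania donovani (UniProt E9BF75). The test concentration is not given. The values are filed as inhibition. Of about 68,000 compounds tested this way, about 24 (0.035%) reached 50% or more in at least one test.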
Mtb heat-shock: 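Assay on Mycobacterium tuberculosis, filed only as a heat shock assay from Cornell; the read-out is not stated. The concentration is filed as 10 mM, unlikely as a test dose, so the dose is not known. Higher reads as stronger inhibition (inferred: compounds with an IC50 in retests scored well above the rest). Of about 69,000 compounds tested this way, about 930 (1.4%) reached 50% or more in at least one test.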

Amino acid sequences for entries named in this document (tags omitted).
UniProt E9BF75, entry or part of it: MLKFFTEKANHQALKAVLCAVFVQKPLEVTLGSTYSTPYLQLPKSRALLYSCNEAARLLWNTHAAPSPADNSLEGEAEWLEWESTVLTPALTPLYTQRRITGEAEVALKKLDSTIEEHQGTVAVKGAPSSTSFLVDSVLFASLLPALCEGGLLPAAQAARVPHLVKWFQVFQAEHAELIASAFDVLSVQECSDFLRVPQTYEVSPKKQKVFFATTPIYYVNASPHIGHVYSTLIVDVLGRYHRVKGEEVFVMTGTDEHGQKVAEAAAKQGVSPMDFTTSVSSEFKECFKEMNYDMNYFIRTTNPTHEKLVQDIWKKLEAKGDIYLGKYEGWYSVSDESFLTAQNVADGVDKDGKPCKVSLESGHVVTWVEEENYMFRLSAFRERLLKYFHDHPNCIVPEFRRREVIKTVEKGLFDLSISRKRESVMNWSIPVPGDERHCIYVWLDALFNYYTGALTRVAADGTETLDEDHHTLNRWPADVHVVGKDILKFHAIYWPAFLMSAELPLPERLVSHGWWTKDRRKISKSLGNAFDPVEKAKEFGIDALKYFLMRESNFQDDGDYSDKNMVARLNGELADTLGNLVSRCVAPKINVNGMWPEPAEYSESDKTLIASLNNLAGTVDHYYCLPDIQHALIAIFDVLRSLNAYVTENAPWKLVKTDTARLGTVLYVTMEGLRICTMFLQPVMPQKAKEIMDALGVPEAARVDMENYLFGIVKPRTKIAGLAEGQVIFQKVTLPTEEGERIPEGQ

Results are percentages, as filed. The controls that fix the scale are not given in the record; negative values are as filed. This is an unselected part of the compounds tested.

Result for CN(C)c1ccc(CNc2cncc(-n3cccn3)n2)cc1 was LdMetRS: 2.834%; Mtb heat-shock: 7.987%. With Cc1csc(CNC(=O)NCC(C)Cn2nc(C)cc2C)n1 (stereo unspecified) the screen gave LdMetRS: 9.946%; Mtb heat-shock: -14.42%. c1ccc(-c2nc(CCNCc3ccccn3)co2)cc1 read LdMetRS: 23.21%; Mtb heat-shock: 12.86%. With CCOCCCNCc1cc(O)c2cc(C)ccc2n1 the screen gave LdMetRS: 5.775%; Mtb heat-shock: -27.03%. For CCn1cc(Cn2cc(-c3cccc(C(C)N(C)C)c3)nn2)cn1 (stereo unspecified) the result was LdMetRS: 1.117%; Mtb heat-shock: -1.567%. With Cc1cc(C)n(CC(=O)N2CCC(c3nc(C(C)C)no3)CC2)n1 the screen gave LdMetRS: 3.266%; Mtb heat-shock: 1.25%. CCOCC(=O)N1CCC(c2nccn2Cc2cscn2)CC1 gave LdMetRS: 13.38%; Mtb heat-shock: 4.383%.

CNC(=O)C1CCCN(C(=O)C2CCC2)C1 (stereo unspecified) read LdMetRS: 6.767%; Mtb heat-shock: 8.492%. With Cc1ccc(CSc2nc(N)cc(NCCC(N)=O)n2)cc1 the screen gave LdMetRS: 4.735%; Mtb heat-shock: -15.41%. O=C(c1cccnc1)N1CCn2cc(CN3CCCC3)nc2C1 gave LdMetRS: 15.42%. Cn1cccc1C(=O)N1CCCC2(CCCN2S(C)(=O)=O)C1 (stereo unspecified) read LdMetRS: -44.53%; Mtb heat-shock: 7.037%. For CCc1ccccc1OCCN(C)C(=O)CCN1CCCO1 the result was LdMetRS: 6.272%; Mtb heat-shock: -19.56%. With Cc1cnc(C)c(N2CCN(CCCc3ccncc3)CC2)n1 the screen gave LdMetRS: 8.505%; Mtb heat-shock: -22.13%. O=C(NCc1nccn1CCc1ccccc1)NCC1CCC1 gave LdMetRS: 22.1%; Mtb heat-shock: 22.84%.

For CCOc1cccc(CSC(C)c2nc(C)no2)n1 (stereo unspecified) the result was LdMetRS: 2.09%; Mtb heat-shock: -25.97%. CC(C)N1CCC2(CC1)C(=O)N(c1cccnc1)c1c(F)cccc12 gave LdMetRS: -0.3484%. O=C1OCCN1CC(=O)N1C[C@H]2CC[C@@H]1CN(C(=O)c1ccccn1)C2 read LdMetRS: 4.897%. For O=C(O)C(F)(F)F.[H][C@@]12CCCO[C@]1([H])[C@@H](OCC(=O)N(C)C)CN2Cc1c(C)noc1C the result was Mtb heat-shock: -3.225%. O=C(NCC(c1ccccc1)N1CCOCC1)Nc1cn[nH]c1 (stereo unspecified) gave LdMetRS: 28.18%; Mtb heat-shock: 6.987%. COc1ccnc(N2CCN(C(=O)c3csc(C4CC4)n3)CC2)n1 gave LdMetRS: 13.75%; Mtb heat-shock: -10.94%. CCN1CC2(CC1=O)CN(Cc1cnn(C)c1)CCN(C(=O)N(C)C)C2 (stereo unspecified) read LdMetRS: 8.934%.

O=C(O)C(F)(F)F.O=C(c1ccc2[nH]ccc2c1)N1Cc2nc(CN3CCCCC3)oc2C1 read Mtb heat-shock: -12.96%. Result for CN(C)C(=O)CN1CCN(c2ccnc3c(F)ccc(F)c23)CC1 was LdMetRS: 11.87%; Mtb heat-shock: -16.45%. With COc1ccc(CCNC(=O)C(C)Nc2cc(C)ccc2C)cc1 (stereo unspecified) the screen gave LdMetRS: 10.48%; Mtb heat-shock: -21.47%. Result for O=C(NC(c1ccc(Cl)cc1)C(F)(F)F)c1nc(=O)[nH][nH]1 (stereo unspecified) was LdMetRS: 11.53%; Mtb heat-shock: -22.53%. Cc1ncsc1C(=O)N(C)Cc1cccnc1 read LdMetRS: 14.71%; Mtb heat-shock: 5.269%. For COCCn1/c(=N\C(=O)CN(C)S(C)(=O)=O)sc2cc(C)ccc21 the result was LdMetRS: -0.6211%; Mtb heat-shock: -11.49%. With Cc1cc(C)c(NC(=O)Nc2cnn(CC(O)CN(C)C)c2)c(C)c1 (stereo unspecified) the screen gave LdMetRS: 19.68%; Mtb heat-shock: 8.06%.

For CCN(CC(=O)Nc1cc(C(C)(C)C)no1)Cc1ccc(Cl)s1 the result was LdMetRS: 5.85%; Mtb heat-shock: 0.5634%. Result for CC(NC(=O)NCCCc1n[nH]c(N)c1C#N)c1ccccc1 (stereo unspecified) was LdMetRS: 12.68%; Mtb heat-shock: 8%.

Once more, the final 3:

{"structure": "Cc1cc(C)c(NC(=O)Nc2cnn(CC(O)CN(C)C)c2)c(C)c1", "stereo": "stereo unspecified", "LdMetRS": 19.68, "Mtb heat-shock": 8.06}
{"structure": "CCN(CC(=O)Nc1cc(C(C)(C)C)no1)Cc1ccc(Cl)s1", "LdMetRS": 5.85, "Mtb heat-shock": 0.5634}
{"structure": "CC(NC(=O)NCCCc1n[nH]c(N)c1C#N)c1ccccc1", "stereo": "stereo unspecified", "LdMetRS": 12.68, "Mtb heat-shock": 8}

Measurements from “University of Dundee, Small-Polar-MMV Screening Library” (2021), ChEMBL document CHEMBL3988442.